# Values quoted from earlier work as cited in patent publication US7459141B2, “Technetium-99m-labeled organic germanium nanocolloids, method of preparing the same and use thereof” (Korea Atomic Energy Research Institute, priority 2006, dated 2008).
# For at least one compound, name, drawing or mass did not settle the structure.
# Tested on: spleen cells
# Conditions: mouse
smiles,measurement,setting,value
"O=C(O)C[CH2][Ge](=[O])[O][Ge](=[O])[CH2]CC(=O)O [Ge-132, bis-carboxyethylgermanium sesquioxide]",interferon activity and natural killer NK cell activity of spleen cells,24 hours after an oral administration,increases
same,peritoneal macrophage activity,in vivo,induces peritoneal macrophage activity
